Assay results: the supplement of paper PMC10338343
± gives the standard deviation. Only a part is listed here, and it is no random draw. Many of these values have a large error. The list shows a part of the results.

Experiments:
[1] = test system: MIWI (PIWIL1) piRISC loaded with L1MC piRNA (30 nt); test: pre-steady-state target cleavage rate (min^-1); higher = faster piRNA-guided slicing of the target; conditions: guide: L1MC piRNA 5'p-UAACUAAAUACUAUGCAAGCUGUAGGUCCU;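 also: 1 nM active piRISC with 0.1 nM target library at 33 °C single turnover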
Procedure, shortened: (§1)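 In this Cleave-'n-Seq assay, uncleaved targets were sequenced and normalised to depth and to weakly complementary targets. They came from a transcribed, DNA-blocked target RNA library […] mixed with 1 nM active affinity-purified piRISC carrying one synthetic guide, with or without 500 nM GTSF1 partner protein, in HEPES–potassium acetate buffer at 33 °C for 0–8 or 0–960 min. After three trials were pooled and k3 was capped at 0.0001 min^-1, the pre-steady-state cleavage rate was obtained from a burst-and-steady-state fit.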

[2] = test system: EfPiwi piRISC loaded with L1MC piRNA (26 nt); test: pre-steady-state target cleavage rate (min^-1); guide: L1MC piRNA 5'p-UAACUAAAUACUAUGCAAGCUGUAGG; MIWI and MILI are mouse PIWI proteins and EfPiwi is from a freshwater sponge; tags in brackets are library labels; higher = faster piRNA-guided slicing of the target
Procedure, shortened: as §1

[3] = auxiliary factor: none (no GTSF1)
[4] = auxiliary factor: 500 nM Ephydatia muelleri Gtsf1
[5] = auxiliary factor: none (no Gtsf1)
[6] = auxiliary factor: 500 nM mouse GTSF1

Sequence | pre-steady-state target cleavage rate [1, 3] | pre-steady-state target cleavage rate [2, 4] | pre-steady-state target cleavage rate [2, 5] | pre-steady-state target cleavage rate [1, 6]
UCCUGGAUGUCGAUGCAUGGUAUUUAGUUA | 0.00134 ± 0.0064 | 0.00175 ± 0.0054 |  | 
UCCUGGAUGUCGACGCAUAGUAUUUAGUUA | 0.000961 ± 0.0065 |  | 0.000482 ± 0.018 | 
UCCUGGAUGUCGAACGUAUGUAUUUUGUAA | 0.000111 ± 0.048 |  | 0.000113 ± 0.036 | 
UCCUGGAUGUCGAACCAUAGUAUUUUGUUA |  | 0.000238 ± 0.016 |  | 0.000207 ± 0.015
UCCUGGAUGUCGAUGCAUAGUAAUUUAGUUA | 0.00115 ± 0.0063 | 0.000834 ± 0.0074 |  | 
UCCUGGAUGUCGAAGCAUAGUAUAUAGAUA | 0.00043 ± 0.014 | 0.000611 ± 0.011 |  | 
UCCUGGAUGUCGAUGCAUAGUAAAUAGUUA | 0.000891 ± 0.0057 | 0.000546 ± 0.01 |  | 
UCCUGGAUCACGAUGCAUAGUAUUUAGUUA | 0.0027 ± 0.0031 | 0.0115 ± 0.004 |  | 
UCCUGGAUGUCGAACCAUAGUAUUUAGCUUA |  | 0.000219 ± 0.022 |  | 0.000157 ± 0.03
UCCUGGAUGUCGAACGAUUCAAUUUAGUUA | 0.00033 ± 0.012 | 0.000456 ± 0.014 |  | 
UCCUGGAUGUCGAACGUUCGUAUUUAGUUA |  |  | < 0.0001 | 0.000222 ± 0.022
UCCUGGAUCAGCUUGCAUAUAUUUAGUUA | 0.00147 ± 0.0035 | 0.00199 ± 0.0047 |  | 
UCCUGGAUGUCGUUGCCUAGUAUUUAGUUA | 0.00141 ± 0.0052 | 0.00172 ± 0.0037 |  | 
UCCUGGAACAGCAACCAUAGUAUUUAGUUA | 0.00134 ± 0.0045 | 0.00435 ± 0.0049 |  | 
UCCUGGAUGUGGUUGGAUAGUAUUUAGUUA | 0.00189 ± 0.0064 | 0.000268 ± 0.033 |  | 
UCCUGGAUGUCGAAGCAUACAUUUUAGUUA | 0.00024 ± 0.027 | 0.000204 ± 0.011 |  | 
UCCUGGAUGUCGUUGCAUAGAUAUUAGUUA | 0.00085 ± 0.008 | 0.000746 ± 0.0087 |  | 
UCCUGGUACAGCUUGCAUAGUCAUUUAGUUA | 0.00318 ± 0.0035 | 0.00084 ± 0.0053 |  | 
UCCUGGAUGUCGAUGCAUACUAUUUUGUUA | 0.000368 ± 0.02 | 0.000154 ± 0.022 |  | 
UCCUGGAUGUCGAACGAAAGUAUUUAGUAA | 0.000238 ± 0.023 |  | 0.000114 ± 0.046 | 
UCCUGCUAGUGCUUGCAUAGUAUUUAGAAA | 0.00156 ± 0.0035 | 0.00258 ± 0.0014 |  | 
UCCUGGAUGUCGAAGCAUGUAUUUAGUUA | 0.000883 ± 0.0088 | 0.000193 ± 0.017 |  | 
UCCUGGAUGUCGAACCAUAGUAUUAAGUAA | 0.000302 ± 0.017 | 0.000712 ± 0.01 |  | 
UCCUGGAUGUCCUUGCAUUCAAUUUAGUAA | 0.000735 ± 0.01 | 0.000161 ± 0.015 |  | 
UCCUCCUACAGCUUCGUUAGUAUUUAGUUA | 0.00132 ± 0.0027 | 0.00276 ± 0.0037 |  | 
UCCUGGAUGUCCUUGCUUACUAUUUAGUUA | 0.000937 ± 0.0072 | 0.00119 ± 0.0085 |  | 
UCCUGGAUGUCGAACCAUCGUAUUUAGUUA |  | < 0.0001 |  | 0.000253 ± 0.019

Quoted at random: 2 records from the list
Sequence | pre-steady-state target cleavage rate [1, 3] | pre-steady-state target cleavage rate [2, 4] | pre-steady-state target cleavage rate [2, 5] | pre-steady-state target cleavage rate [1, 6]
UCCUGGAACAGCAACCAUAGUAUUUAGUUA | 0.00134 ± 0.0045 | 0.00435 ± 0.0049 |  | 
UCCUGGAUGUCGAACCAUAGUAUUAAGUAA | 0.000302 ± 0.017 | 0.000712 ± 0.01 |  | 

Following part

Sequence | pre-steady-state target cleavage rate [1, 3] | pre-steady-state target cleavage rate [2, 4] | pre-steady-state target cleavage rate [2, 5] | pre-steady-state target cleavage rate [1, 6]
UCCUGCUACAGCUUCCAUAGUAUUUAGAAA | 0.000955 ± 0.0083 | 0.00349 ± 0.0019 |  | 
UCCUGGAUGUCGAUGCAUAGUACUUAGUUA | 0.00219 ± 0.0035 | 0.00454 ± 0.0029 |  | 
UCCUGGAACAGCUUGCAUUAGUAUUUAGUUA | 0.00234 ± 0.0036 | 0.000539 ± 0.012 |  | 
UCCUGGAUCAGCUUGCAUUCAUAAAUCAAA [g13:g22:cont:t1A] | 0.00059 ± 0.013 | 0.000738 ± 0.0075 |  | 
UCCUCCUUGUGCUUGCAUAGUAUUUUCAAA | 0.00201 ± 0.0022 | 0.00243 ± 0.0033 |  | 
UCCUGGAUGUCGUUGCAUAGUAUUUUAGUUA | 0.00102 ± 0.0078 | 0.000867 ± 0.015 |  | 
UCCUGGAACAGCUUGCAUUCAAUUUUCAAA | 0.000817 ± 0.0074 | 0.000794 ± 0.0051 |  | 
UCCUGGAUGUCGAACCAUAGUAUUUAGUGUA | 0.000347 ± 0.017 | 0.000189 ± 0.019 |  | 
UCCUGGAUGUCGUUGCUUAGUUUUUAGUUA |  | 0.000177 ± 0.03 |  | 0.000582 ± 0.018
UCCUGGUACAGCUACGAUAGUAUUUAGAAA | 0.000888 ± 0.0087 | 0.000319 ± 0.011 |  | 
UCCUGGAUGUCGUAGCAUAGUAUAUAGUUA | 0.000977 ± 0.0078 |  | 0.000101 ± 0.065 | 
UCCUGGAUGUCGAGGCAUAGUAUUUAGUUA | 0.00189 ± 0.0047 | 0.00166 ± 0.0049 |  | 
UCCUGGAUCAGCUUGCAUAGUUAUUUCAAA | 0.00026 ± 0.0088 | 0.0005 ± 0.0078 |  | 
UCCUGGAUGUCGUACGAUAGUAUUUAGUUA | 0.000224 ± 0.02 | 0.000172 ± 0.018 |  | 
UCCUGGAUGUCGAACGUAUCUAUAUUGUUA | 0.000255 ± 0.017 | 0.000373 ± 0.01 |  | 
UCCUGGAUGACCUUGCAUAGUAUUUAGAUA | 0.00347 ± 0.0042 |  | 0.000623 ± 0.015 | 
UCCUGGUACAGCUUGCAUACAUAAAUCAAA [g12:g24:cont:t1A] | 0.000352 ± 0.0092 |  | 0.000366 ± 0.018 | 
UCCUGGAUGUCGAACCAUUAGUAUUUAGUUA | 0.000356 ± 0.0094 |  | 0.000123 ± 0.046 | 
UCCUGGAUGUCGAACCAUAGUAAUAAGUUA | 0.000336 ± 0.012 | 0.000308 ± 0.02 |  | 
UCCUGGAUGUCGAACGUGAGUAUUUAGUUA | 0.000286 ± 0.017 | 0.000198 ± 0.014 |  | 
UCCUGGAUGUCCUUCGCAUAGUAUUUAGUUA | 0.00228 ± 0.0041 | 0.01 ± 0.0052 |  | 
UCCUGGAUGUGCAUGCAUUGUAUUUAGUUA | 0.00226 ± 0.0036 | 0.000524 ± 0.0088 |  | 
UCCUGGAUGUCGAACGUAUGUUAUUAGUUA |  |  | < 0.0001 | 0.000217 ± 0.032
UCCUGGAUGUCGAACCAAAGUAAUUAGUUA | 0.000166 ± 0.014 |  | 0.000255 ± 0.019 | 
UCCUGGAUGUCCUUGGAUAGUUUUUAGUUA | 0.000654 ± 0.013 | 0.00135 ± 0.0057 |  | 
UCCUGGAUGUCGAUGGUAAGUAUUUAGUUA | 0.000126 ± 0.021 |  | 0.000246 ± 0.035 | 
UCCUGGAACAGCUUGCAUAGUUAUUUCAAA | 0.000939 ± 0.0048 | 0.00079 ± 0.0044 |  | 
